Measured values from the supplement of paper PMC8728848.
This is one part of the list.

How the values were obtained:
Experiment in all cases: glycan array binding signal (z-score within array); higher = stronger binding
Conditions in all cases: glycan notation: IUPAC condensed, linker removed
[1] = biological target: GlcNAc(b1-3)Gal(b1-4)GlcNAc(b1-3)Gal(b1-4)GlcNAc(b1-3)GalNAc
Procedure, shortened: (§1)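 The binding signal is a Z-score computed within each array and averaged over linkers. Arrays of the same protein sequence at different concentrations or buffers were also averaged together. Data originate from 3228 arrays in the Consortium for Functional Glycomics database, kept only where the protein sequence was available.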

[2] = biological target: GlcNAc(b1-3)Gal(b1-4)GlcNAc(b1-3)GalNAc
Procedure, shortened: as §1

[3] = biological target: GlcNAc(b1-3)Gal(b1-4)GlcNAc(b1-3)[GlcNAc(b1-3)Gal(b1-4)GlcNAc(b1-3)]GalNAc
Procedure, shortened: as §1

[4] = biological target: GlcNAc(b1-3)Gal(b1-4)GlcNAc(b1-6)[Gal(b1-3)]GalNAc
Procedure, shortened: as §1

[5] = biological target: GlcNAc(b1-3)Gal(b1-4)GlcNAc(b1-6)[GlcNAc(b1-3)Gal(b1-3)]GalNAc
Procedure, shortened: as §1

[6] = biological target: GlcNAc(b1-3)Gal(b1-4)GlcNAc(b1-6)[GlcNAc(b1-3)]Gal(b1-4)GlcNAc
Procedure, shortened: as §1

GlcNAc(b1-3)GalNAc = biological target: GlcNAc(b1-3)GalNAc
Procedure, shortened: as §1

GlcNAc(b1-3)Man = biological target: GlcNAc(b1-3)Man
Procedure, shortened: as §1

[7] = biological target: GlcNAc(b1-3)[GlcNAc(b1-4)][GlcNAc(b1-6)]GlcNAc
Procedure, shortened: as §1

[8] = biological target: GlcNAc(b1-3)[GlcNAc(b1-6)]Gal(b1-4)GlcNAc
Procedure, shortened: as §1

[9] = biological target: GlcNAc(b1-3)[GlcNAc(b1-6)]GalNAc
Procedure, shortened: as §1

[10] = biological target: GlcNAc(b1-4)Gal(b1-4)GlcNAc
Procedure, shortened: as §1

GlcNAc(b1-4)GlcNAc = biological target: GlcNAc(b1-4)GlcNAc
Procedure, shortened: as §1

[11] = biological target: GlcNAc(b1-4)GlcNAc(b1-4)GlcNAc
Procedure, shortened: as §1

[12] = biological target: GlcNAc(b1-4)GlcNAc(b1-4)GlcNAc(b1-4)GlcNAc(b1-4)GlcNAc
Procedure, shortened: as §1

[13] = biological target: GlcNAc(b1-4)GlcNAc(b1-4)GlcNAc(b1-4)GlcNAc(b1-4)GlcNAc(b1-4)GlcNAc
Procedure, shortened: as §1

[14] = biological target: GlcNAc(b1-4)[GlcNAc(b1-6)]GalNAc
Procedure, shortened: as §1

[15] = biological target: GlcNAc(b1-6)Gal(b1-4)GlcNAc
Procedure, shortened: as §1

GlcNAc(b1-6)GalNAc = biological target: GlcNAc(b1-6)GalNAc
Procedure, shortened: as §1

[16] = biological target: GlcNAc6S(b1-3)Gal(b1-4)GlcNAc
Procedure, shortened: as §1

Kdn(a2-3)Gal(b1-3)GalNAc = biological target: Kdn(a2-3)Gal(b1-3)GalNAc
Procedure, shortened: as §1

Kdn(a2-3)Gal(b1-3)GlcNAc = biological target: Kdn(a2-3)Gal(b1-3)GlcNAc
Procedure, shortened: as §1

Kdn(a2-3)Gal(b1-4)Glc = biological target: Kdn(a2-3)Gal(b1-4)Glc
Procedure, shortened: as §1

Kdn(a2-3)Gal(b1-4)GlcNAc = biological target: Kdn(a2-3)Gal(b1-4)GlcNAc
Procedure, shortened: as §1

[17] = biological target: Kdn(a2-3)Gal(b1-4)[Fuc(a1-3)]GlcNAc
Procedure, shortened: as §1

Kdn(a2-6)Gal(b1-4)GlcNAc = biological target: Kdn(a2-6)Gal(b1-4)GlcNAc
Procedure, shortened: as §1

[18] = biological target: Man(a1-2)Man(a1-2)Man(a1-3)Man
Procedure, shortened: as §1

[19] = biological target: Man(a1-2)Man(a1-2)Man(a1-6)[Man(a1-3)]Man
Procedure, shortened: as §1

Man(a1-2)Man(a1-3)Man = biological target: Man(a1-2)Man(a1-3)Man
Procedure, shortened: as §1

[20] = biological target: Man(a1-2)Man(a1-3)[Man(a1-2)Man(a1-6)]Man
Procedure, shortened: as §1

B1: CD4 (Rattus norvegicus), P05540 (protein)
chain: MCRGFSFRHLLPLLLLQLSKLLVVTQGSTSITAYKSEGESAEFSFPLNLGEESLQGELRWKAEKAPSSQSWITFSLKNQKVSVQKSTSNPKFQLSETLPLTLQIPQVSLQFAGSGNLTLTLDRGILYQEVNLVVMKVTQPDSNTLTCEVMGPTSPKMRLILKQENQEARVSRQEKVIQVQAPEAGVWQCLLSEGEEVKMDSKIQVLSKGLNSGGGSGGGTGGGDLAPQMLRELQETNAALQDVRELLRQQVKEITFLKNTVMECDACGLDRNLPPLAPLGPHPETLVKVKDAEDQLGARVGYIELDLNSGKILESFRPEERFPMMSTFKVLLCGAVLSRIDAGQEQLGRRIHYSQNDLVEYSPVTEKHLTDGMTVRELCSAAITMSDNTAANLLLTTIGGPKELTAFLHNMGDHVTRLDRWEPELNEAIPNDERDTTMPVAMATTLRKLLTGELLTLASRQQLIDWMEADKVAGPLLRSALPAGWFIADKSGAGERGSRGIIAALGPDGKPSRIVVIYTTGSQATMDERNRQIAEIGASLIKHW
Q: Which results are given for B1?
A: glycan array binding signal (z-score) [1]: -0.708; glycan array binding signal (z-score) [2]: -1.2; glycan array binding signal (z-score) [3]: -0.632; glycan array binding signal (z-score) [4]: -0.267; glycan array binding signal (z-score) [5]: -1.14; glycan array binding signal (z-score) [6]: -0.078; glycan array binding signal (z-score) (GlcNAc(b1-3)GalNAc): 0.014; glycan array binding signal (z-score) (GlcNAc(b1-3)Man): 0.154; glycan array binding signal (z-score) [7]: -0.073; glycan array binding signal (z-score) [8]: 1.01; glycan array binding signal (z-score) [9]: -0.65; glycan array binding signal (z-score) [10]: 0.561; glycan array binding signal (z-score) (GlcNAc(b1-4)GlcNAc): -0.153; glycan array binding signal (z-score) [11]: 0.214; glycan array binding signal (z-score) [12]: -0.607; glycan array binding signal (z-score) [13]: 0.535; glycan array binding signal (z-score) [14]: 0.046; glycan array binding signal (z-score) [15]: 0.739; glycan array binding signal (z-score) (GlcNAc(b1-6)GalNAc): -0.286; glycan array binding signal (z-score) [16]: 1.64; glycan array binding signal (z-score) (Kdn(a2-3)Gal(b1-3)GalNAc): 0.559; glycan array binding signal (z-score) (Kdn(a2-3)Gal(b1-3)GlcNAc): -0.463; glycan array binding signal (z-score) (Kdn(a2-3)Gal(b1-4)Glc): 0.091; glycan array binding signal (z-score) (Kdn(a2-3)Gal(b1-4)GlcNAc): -0.59; glycan array binding signal (z-score) [17]: 1.05; glycan array binding signal (z-score) (Kdn(a2-6)Gal(b1-4)GlcNAc): -1.16; glycan array binding signal (z-score) [18]: -0.58; glycan array binding signal (z-score) [19]: -0.617; glycan array binding signal (z-score) (Man(a1-2)Man(a1-3)Man): -1.14; glycan array binding signal (z-score) [20]: -0.568
